From doi:10.1101/2022.07.25.501378

T1: HflC with a C-terminal double tag (TwinStrep-Tag followed by a poly-Histidine-Tag) (E. coli) (UniProt P0ABC3)
T1 sequence: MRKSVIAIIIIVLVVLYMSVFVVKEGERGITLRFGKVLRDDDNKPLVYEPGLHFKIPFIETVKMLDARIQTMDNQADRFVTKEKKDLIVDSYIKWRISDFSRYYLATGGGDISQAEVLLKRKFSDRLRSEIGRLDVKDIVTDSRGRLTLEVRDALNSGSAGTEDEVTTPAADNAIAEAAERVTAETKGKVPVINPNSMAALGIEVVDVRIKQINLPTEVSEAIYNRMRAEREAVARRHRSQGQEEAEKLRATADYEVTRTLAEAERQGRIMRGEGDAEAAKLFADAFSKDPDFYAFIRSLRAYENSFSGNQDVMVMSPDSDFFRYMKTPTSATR

B1: YajC, a Sec translocon accessory subunit membrane protein (protein, UniProt P0ADZ7 1-110)
chain: MSFFISDAVAATGAPAQGSPMSLILMLVVFGLIFYFMILRPQQKRTKEHKKLMDSIAKGDEVLTNGGLVGRVTKVAENGYIAIALNDTTEVVIKRDFVAAVLPKGTMKAL
B2: thiol-reductase chaperone DsbG (protein, UniProt P77202 18-248)
chain: EELPAPVKAIEKQGITIIKTFDAPGGMKGYLGKYQDMGVTIYLTPDGKHAISGYMYNEKGENLSNTLIEKEIYAPAGREMWQRMEQSHWLLDGKKDAPVIVYVFADPFCPYCKQFWQQARPWVDSGKVQLRTLLVGVIKPESPATAAAILASKDPAKTWQQYEASGGKLKLNVPANVSTEQMKVLSDNEKLMDDLGANVTPAIYYMSKENTLQQAVGLPDQKTLNIIMGNK
B3: cell division coordinator of peptidoglycan synthesis CpoB (protein, UniProt P45955 27-263)
chain: QAPISSVGSGSVEDRVTQLERISNAHSQLLTQLQQQLSDNQSDIDSLRGQIQENQYQLNQVVERQKQILLQIDSLSSGGAAAQSTSGDQSGAAASTTPTADAGTANAGAPVKSGNANTDYNAAIALVQDKSRQDDAMVAFQNFIKNYPDSTYLPNANYWLGQLNYNKGKKDDAAYYFASVVKNYPKSPKAADAMFKVGVIMQDKGDTAKAKAVYQQVISKYPGTDGAKQAQKRLNAM

molecular target: T1, HflC with a C-terminal double tag (TwinStrep-Tag followed by a poly-Histidine-Tag) (E. coli); assay: cross-linking + affinity purification with mass spectrometry

binding, binds:
B1
B2
B3

Results are given in words; binding and its absence hold for the method and conditions named. Binding seen in cells or lysates may run through a third protein. Here binding means that the protein was enriched with, or labelled near, the bait; the list need not be complete. Where a sequence is shown, tags or fusion partners need not be part of it.
